The supplement of paper PMC10849652
The other results are listed elsewhere or left out.

Chains of the proteins cited; added tags and fusions are not shown. Lines headed by an entry give the natural chain unless they say otherwise; changes in a name come on top.
UniProt Q9UKU7: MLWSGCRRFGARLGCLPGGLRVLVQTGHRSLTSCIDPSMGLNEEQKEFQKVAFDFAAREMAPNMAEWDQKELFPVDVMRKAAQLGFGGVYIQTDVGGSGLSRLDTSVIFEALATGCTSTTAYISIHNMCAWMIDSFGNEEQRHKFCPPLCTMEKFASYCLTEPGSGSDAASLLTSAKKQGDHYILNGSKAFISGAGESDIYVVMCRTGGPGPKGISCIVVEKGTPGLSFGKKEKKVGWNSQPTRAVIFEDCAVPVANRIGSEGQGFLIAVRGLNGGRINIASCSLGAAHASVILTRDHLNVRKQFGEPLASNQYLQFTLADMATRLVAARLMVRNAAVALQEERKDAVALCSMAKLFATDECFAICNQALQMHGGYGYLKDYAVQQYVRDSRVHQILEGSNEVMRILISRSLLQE
UniProt P55265: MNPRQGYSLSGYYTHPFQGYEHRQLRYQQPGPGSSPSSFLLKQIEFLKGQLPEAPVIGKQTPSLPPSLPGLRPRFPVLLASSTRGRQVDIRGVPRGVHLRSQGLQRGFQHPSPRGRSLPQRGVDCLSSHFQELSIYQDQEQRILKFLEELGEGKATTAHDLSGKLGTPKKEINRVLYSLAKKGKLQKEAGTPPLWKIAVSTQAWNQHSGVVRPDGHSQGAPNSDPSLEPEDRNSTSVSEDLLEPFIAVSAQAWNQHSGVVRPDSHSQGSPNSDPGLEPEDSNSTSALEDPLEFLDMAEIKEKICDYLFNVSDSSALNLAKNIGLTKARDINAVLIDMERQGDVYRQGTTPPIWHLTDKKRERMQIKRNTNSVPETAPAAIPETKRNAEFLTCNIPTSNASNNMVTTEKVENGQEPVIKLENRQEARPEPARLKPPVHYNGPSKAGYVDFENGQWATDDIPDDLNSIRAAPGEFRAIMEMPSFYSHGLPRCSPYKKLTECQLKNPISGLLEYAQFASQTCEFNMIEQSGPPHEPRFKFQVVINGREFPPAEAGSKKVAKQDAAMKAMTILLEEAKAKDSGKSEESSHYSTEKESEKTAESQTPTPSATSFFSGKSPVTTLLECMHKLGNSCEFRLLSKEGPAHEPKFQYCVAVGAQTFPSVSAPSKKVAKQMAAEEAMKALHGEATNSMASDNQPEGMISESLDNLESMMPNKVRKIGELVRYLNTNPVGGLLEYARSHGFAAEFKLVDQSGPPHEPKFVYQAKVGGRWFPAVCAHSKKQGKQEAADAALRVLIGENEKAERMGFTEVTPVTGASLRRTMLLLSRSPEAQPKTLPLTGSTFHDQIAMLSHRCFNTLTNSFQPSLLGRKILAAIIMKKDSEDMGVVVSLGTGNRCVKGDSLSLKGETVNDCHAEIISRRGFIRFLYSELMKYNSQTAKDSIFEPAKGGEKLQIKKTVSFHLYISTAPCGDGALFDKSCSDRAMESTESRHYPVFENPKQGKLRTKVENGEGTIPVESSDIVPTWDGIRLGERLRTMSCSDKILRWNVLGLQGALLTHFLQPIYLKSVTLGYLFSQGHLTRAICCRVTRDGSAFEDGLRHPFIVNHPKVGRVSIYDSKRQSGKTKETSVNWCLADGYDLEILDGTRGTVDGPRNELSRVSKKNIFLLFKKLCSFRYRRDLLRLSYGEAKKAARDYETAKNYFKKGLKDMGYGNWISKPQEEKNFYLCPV
UniProt P21399: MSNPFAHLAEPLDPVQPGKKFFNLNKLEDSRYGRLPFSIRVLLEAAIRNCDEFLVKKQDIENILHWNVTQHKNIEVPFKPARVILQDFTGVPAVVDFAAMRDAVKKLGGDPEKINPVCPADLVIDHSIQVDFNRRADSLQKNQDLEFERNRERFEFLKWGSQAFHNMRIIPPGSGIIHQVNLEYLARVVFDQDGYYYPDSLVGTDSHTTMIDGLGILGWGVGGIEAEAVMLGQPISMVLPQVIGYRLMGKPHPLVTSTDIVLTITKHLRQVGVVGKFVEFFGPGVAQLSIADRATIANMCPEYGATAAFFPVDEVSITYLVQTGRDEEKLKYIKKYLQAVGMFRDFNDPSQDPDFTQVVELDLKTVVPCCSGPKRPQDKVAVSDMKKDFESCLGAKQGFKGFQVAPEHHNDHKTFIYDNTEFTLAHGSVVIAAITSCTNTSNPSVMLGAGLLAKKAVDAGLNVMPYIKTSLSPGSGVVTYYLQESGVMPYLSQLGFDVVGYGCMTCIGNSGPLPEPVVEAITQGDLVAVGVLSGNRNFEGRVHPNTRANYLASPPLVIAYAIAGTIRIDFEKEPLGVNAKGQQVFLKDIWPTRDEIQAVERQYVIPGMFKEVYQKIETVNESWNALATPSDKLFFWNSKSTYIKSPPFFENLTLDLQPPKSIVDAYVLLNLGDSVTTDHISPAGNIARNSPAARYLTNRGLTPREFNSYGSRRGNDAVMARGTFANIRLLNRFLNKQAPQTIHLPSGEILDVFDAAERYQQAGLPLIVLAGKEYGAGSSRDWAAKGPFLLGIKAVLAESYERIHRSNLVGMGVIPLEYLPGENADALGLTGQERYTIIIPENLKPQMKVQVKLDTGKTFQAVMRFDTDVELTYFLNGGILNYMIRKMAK
UniProt Q96CM8: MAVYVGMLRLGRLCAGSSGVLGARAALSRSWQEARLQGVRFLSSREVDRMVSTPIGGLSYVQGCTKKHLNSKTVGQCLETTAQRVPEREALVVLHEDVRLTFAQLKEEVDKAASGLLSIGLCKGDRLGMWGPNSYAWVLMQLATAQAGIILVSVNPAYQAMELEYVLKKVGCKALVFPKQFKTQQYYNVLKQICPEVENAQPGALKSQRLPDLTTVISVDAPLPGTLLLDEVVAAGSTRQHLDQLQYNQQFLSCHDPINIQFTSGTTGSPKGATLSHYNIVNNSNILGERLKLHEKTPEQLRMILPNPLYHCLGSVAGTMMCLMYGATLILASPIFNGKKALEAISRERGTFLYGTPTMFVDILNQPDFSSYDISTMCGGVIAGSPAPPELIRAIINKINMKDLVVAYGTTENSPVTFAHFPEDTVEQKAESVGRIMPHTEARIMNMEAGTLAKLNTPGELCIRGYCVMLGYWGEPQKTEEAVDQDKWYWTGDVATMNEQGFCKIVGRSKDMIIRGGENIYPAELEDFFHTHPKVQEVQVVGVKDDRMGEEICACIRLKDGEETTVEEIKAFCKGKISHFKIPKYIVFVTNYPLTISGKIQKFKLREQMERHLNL
UniProt Q2M3G0: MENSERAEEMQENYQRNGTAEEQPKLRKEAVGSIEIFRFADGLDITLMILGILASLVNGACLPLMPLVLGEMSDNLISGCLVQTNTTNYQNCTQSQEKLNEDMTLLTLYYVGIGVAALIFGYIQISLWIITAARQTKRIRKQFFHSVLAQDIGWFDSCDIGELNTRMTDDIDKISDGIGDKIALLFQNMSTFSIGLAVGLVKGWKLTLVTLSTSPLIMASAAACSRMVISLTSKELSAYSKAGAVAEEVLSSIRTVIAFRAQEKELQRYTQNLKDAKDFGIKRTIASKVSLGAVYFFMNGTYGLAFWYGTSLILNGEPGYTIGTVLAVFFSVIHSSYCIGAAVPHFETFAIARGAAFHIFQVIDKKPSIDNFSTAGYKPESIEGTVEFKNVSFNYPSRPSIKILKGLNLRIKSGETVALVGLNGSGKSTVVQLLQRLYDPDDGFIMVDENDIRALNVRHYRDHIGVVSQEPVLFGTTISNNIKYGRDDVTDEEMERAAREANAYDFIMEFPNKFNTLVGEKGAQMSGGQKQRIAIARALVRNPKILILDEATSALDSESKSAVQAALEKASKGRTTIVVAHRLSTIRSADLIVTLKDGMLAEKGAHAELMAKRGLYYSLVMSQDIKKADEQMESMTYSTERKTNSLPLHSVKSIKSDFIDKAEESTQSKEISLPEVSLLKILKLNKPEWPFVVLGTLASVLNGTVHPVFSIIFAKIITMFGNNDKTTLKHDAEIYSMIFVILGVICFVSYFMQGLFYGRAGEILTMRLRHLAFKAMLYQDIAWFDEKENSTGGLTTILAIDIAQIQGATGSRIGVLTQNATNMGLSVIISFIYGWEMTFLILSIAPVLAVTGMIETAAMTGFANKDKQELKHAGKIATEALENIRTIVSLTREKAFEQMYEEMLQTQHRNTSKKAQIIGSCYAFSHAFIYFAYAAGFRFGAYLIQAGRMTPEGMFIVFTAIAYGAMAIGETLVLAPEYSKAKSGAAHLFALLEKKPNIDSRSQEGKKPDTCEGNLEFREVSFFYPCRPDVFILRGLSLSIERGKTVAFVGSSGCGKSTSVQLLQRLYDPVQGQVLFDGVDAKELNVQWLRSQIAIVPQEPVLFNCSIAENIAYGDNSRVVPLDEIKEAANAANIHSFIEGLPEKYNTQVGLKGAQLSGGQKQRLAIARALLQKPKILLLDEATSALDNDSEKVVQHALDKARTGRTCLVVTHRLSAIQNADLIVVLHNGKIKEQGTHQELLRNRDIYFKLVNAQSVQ
UniProt O95342, whole entry, looked up: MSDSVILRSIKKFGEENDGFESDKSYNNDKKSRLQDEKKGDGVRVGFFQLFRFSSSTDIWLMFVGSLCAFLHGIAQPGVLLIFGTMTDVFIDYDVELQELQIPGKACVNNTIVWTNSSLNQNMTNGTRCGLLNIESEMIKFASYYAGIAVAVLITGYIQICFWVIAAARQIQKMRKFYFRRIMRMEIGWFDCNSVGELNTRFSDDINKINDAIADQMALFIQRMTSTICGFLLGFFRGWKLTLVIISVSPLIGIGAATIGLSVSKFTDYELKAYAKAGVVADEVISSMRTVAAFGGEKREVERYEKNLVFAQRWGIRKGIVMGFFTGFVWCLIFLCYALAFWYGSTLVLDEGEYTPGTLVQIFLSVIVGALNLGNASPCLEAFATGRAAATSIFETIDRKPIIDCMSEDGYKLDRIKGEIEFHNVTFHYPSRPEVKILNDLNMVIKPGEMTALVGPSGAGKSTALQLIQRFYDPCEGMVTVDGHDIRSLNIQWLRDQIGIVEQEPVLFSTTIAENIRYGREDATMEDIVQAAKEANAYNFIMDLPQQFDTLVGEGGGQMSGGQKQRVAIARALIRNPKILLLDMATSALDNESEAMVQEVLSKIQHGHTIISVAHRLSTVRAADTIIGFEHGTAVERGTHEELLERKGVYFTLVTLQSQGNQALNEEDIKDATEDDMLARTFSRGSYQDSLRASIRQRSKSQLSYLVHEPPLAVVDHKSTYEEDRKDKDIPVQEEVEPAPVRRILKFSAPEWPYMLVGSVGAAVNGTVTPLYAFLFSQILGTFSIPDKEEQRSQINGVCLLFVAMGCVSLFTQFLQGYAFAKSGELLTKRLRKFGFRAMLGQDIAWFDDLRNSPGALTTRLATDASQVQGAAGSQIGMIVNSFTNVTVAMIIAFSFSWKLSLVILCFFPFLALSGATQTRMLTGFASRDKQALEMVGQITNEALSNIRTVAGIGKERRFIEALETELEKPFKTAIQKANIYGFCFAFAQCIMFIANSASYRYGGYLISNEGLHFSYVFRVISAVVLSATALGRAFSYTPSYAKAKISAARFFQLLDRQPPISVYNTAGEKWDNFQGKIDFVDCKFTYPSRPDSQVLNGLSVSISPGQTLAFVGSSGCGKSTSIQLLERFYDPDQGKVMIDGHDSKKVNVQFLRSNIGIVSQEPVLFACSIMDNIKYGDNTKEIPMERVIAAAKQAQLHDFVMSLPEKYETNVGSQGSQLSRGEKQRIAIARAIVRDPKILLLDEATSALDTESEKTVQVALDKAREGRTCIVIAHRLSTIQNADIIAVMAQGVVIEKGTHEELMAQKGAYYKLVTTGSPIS
UniProt Q9UKU0: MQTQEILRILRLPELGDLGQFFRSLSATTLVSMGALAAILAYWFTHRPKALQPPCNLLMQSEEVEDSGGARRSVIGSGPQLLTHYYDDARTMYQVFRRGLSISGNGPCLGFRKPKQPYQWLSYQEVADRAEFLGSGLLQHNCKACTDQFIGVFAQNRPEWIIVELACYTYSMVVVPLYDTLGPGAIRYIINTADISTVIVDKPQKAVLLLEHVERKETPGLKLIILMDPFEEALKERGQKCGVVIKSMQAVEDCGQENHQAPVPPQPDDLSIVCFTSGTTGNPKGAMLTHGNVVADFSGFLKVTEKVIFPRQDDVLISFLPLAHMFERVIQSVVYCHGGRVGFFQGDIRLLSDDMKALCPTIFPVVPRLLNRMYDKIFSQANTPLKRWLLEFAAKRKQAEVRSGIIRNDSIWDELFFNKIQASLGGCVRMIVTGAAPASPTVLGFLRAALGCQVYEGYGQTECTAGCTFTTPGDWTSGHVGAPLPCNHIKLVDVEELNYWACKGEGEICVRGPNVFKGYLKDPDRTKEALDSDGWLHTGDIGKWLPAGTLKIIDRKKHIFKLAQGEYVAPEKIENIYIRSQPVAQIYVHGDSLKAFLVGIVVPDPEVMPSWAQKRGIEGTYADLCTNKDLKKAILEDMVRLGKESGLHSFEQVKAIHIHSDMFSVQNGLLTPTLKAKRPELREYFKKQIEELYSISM

Key:
Experiment in all cases: log2 fold change, soluble protein after heating vs DMSO (PISA); higher = thermal stabilisation; K562 cells, 10 uM, 30 min; active = over 0.2 and 3.5 SD of the protein, either way, in both replicates (recomputed)
[1] = compound: CC[C@@H]1C(=O)N(C)c2cnc(Nc3ccc(C(=O)NC4CCN(C)CC4)cc3OC)nc2N1C1CCCC1
How it was run: (§1)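 For each measurement, 10 μM compound was applied for 30 min to K562 cells at 2×10^6 cells/mL. Aliquots were heated for 3 min across 48°C-58°C, pooled, and extracted in PBS with 0.5% NP-40 at 4°C; the supernatant after 21,000xg for 90 min was soluble protein. This was quantified by TMTpro 16plex LC-MS/MS with channel sums equalised, and thermal stability was reported relative to control samples from duplicates, on a log2 fold-change scale.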

volasertib = compound: CC[C@@H]1C(=O)N(C)c2cnc(Nc3ccc(C(=O)N[C@H]4CC[C@H](N5CCN(CC6CC6)CC5)CC4)cc3OC)nc2N1C(C)C [volasertib]
How it was run: as §1

[2] = compound: CC[C@H](C)N1C=C(C2=C(C=C(C=C21)C3=CN=C(C=C3)N4CCNCC4)C(=O)NCC5=C(C=C(NC5=O)C)C)C
How it was run: as §1

epoxomicin = compound: CC[C@H](C)[C@@H](C(=O)N[C@@H]([C@@H](C)O)C(=O)N[C@@H](CC(C)C)C(=O)[C@]1(CO1)C)NC(=O)[C@H]([C@@H](C)CC)N(C)C(=O)C [epoxomicin]
How it was run: as §1

[3] = compound: CCn1c(C(=O)N(C2CC2)C2CC2)cc2c3c(ncn3C)c(Nc3cc(C)n(C)n3)nc21
How it was run: as §1

[4] = compound: CN(C)CC(=O)Nc1ccc2[nH]c(=O)c3ccccc3c2c1
How it was run: as §1

rosiglitazone = compound: CN(CCOC1=CC=C(C=C1)C[C@H]2C(=O)NC(=O)S2)C3=CC=CC=N3 (racemic) [rosiglitazone]
How it was run: as §1

[5] = compound: CN1C2=C(C3=C1C(=O)N(N=C3)CC4=CC(=CC=C4)N)SC(=C2)S(=O)C
How it was run: as §1

saracatinib = compound: CN1CCN(CCOc2cc(OC3CCOCC3)c3c(Nc4c(Cl)ccc5c4OCO5)ncnc3c2)CC1 [saracatinib]
How it was run: as §1

sotrastaurin = compound: CN1CCN(c2nc(C3=C(c4c[nH]c5ccccc45)C(=O)NC3=O)c3ccccc3n2)CC1 [sotrastaurin]
How it was run: as §1

alvocidib = compound: CN1CC[C@H](c2c(O)cc(O)c3c(=O)cc(-c4ccccc4Cl)oc23)[C@H](O)C1 [alvocidib]
How it was run: as §1

Tubastatin A = compound: CN1CCc2c(c3ccccc3n2Cc2ccc(C(=O)NO)cc2)C1 [Tubastatin A]
How it was run: as §1

[6] = compound: CNC(=O)C1=CC=CC=C1NC2=NC(=NC=C2Cl)NC3=C(C=C(C=C3)N4CCOCC4)OC
How it was run: as §1

defactinib = compound: CNC(=O)c1ccc(Nc2ncc(C(F)(F)F)c(NCc3nccnc3N(C)S(C)(=O)=O)n2)cc1 [defactinib]
How it was run: as §1

rucaparib = compound: CNCc1ccc(-c2[nH]c3cc(F)cc4c3c2CCNC4=O)cc1 [rucaparib]
How it was run: as §1

[7] = compound: CNc1nc(-c2ccc3c(N)n[nH]c3c2)cc(N2C[C@@H](C(=O)NC3CCCCC3)CC[C@H]2C)n1
How it was run: as §1

encorafenib = compound: COC(=O)N[C@@H](C)CNc1nccc(-c2cn(C(C)C)nc2-c2cc(Cl)cc(NS(C)(=O)=O)c2F)n1 [encorafenib]
How it was run: as §1

[8] = compound: COC(=O)[C@H](CCSC)NC(=O)C1=C(C=C(C=C1)NC[C@H](CS)N)C2=CC=CC=C2
How it was run: as §1

[9] = compound: CCn1cc(-c2ccnc3[nH]c(-c4cccc(CN(C)C)c4)cc23)c(-c2ccc(NC(=O)N(C)C)cc2)n1
How it was run: as §1

[10] = compound: CN1CCC(CNc2ccc3ncc(-c4cccc(OC(F)(F)F)c4)n3n2)CC1
How it was run: as §1

Target | log2 fold change [1] | log2 fold change (volasertib) | log2 fold change [2] | log2 fold change (epoxomicin) | log2 fold change [3] | log2 fold change [4] | log2 fold change (rosiglitazone) | log2 fold change [5] | log2 fold change (saracatinib) | log2 fold change (sotrastaurin) | log2 fold change (alvocidib) | log2 fold change (Tubastatin A) | log2 fold change [6] | log2 fold change (defactinib) | log2 fold change (rucaparib) | log2 fold change [7] | log2 fold change (encorafenib) | log2 fold change [8] | log2 fold change [9] | log2 fold change [10]
ACTN1 (UniProt H9KV75) | inactive: 0.013 | inactive: -0.116 | inactive: -0.105 | inactive: 0.015 | inactive: -0.103 | inactive: -0.039 | inactive: -0.073 | inactive: -0.078 | inactive: -0.025 | inactive: 0.011 | inactive: 0.012 | inactive: 0.313 | inactive: -0.271 | inactive: -0.103 | inactive: -0.106 | inactive: -0.101 | inactive: -0.004 | inactive: -0.142 | – | –
ACAD8 (UniProt Q9UKU7) | inactive: 0.084 | inactive: -0.111 | inactive: -0.014 | inactive: -0.015 | inactive: -0.09 | inactive: -0.029 | inactive: 0.026 | inactive: -0.091 | inactive: 0.046 | inactive: 0.048 | inactive: -0.007 | inactive: -0.036 | inactive: -0.072 | inactive: 0.004 | inactive: -0.189 | inactive: -0.098 | inactive: -0.007 | inactive: 0.028 | inactive: -0.055 | inactive: 0.001
ADAR isoform 4 (UniProt P55265) | inactive: 0.118 | inactive: -0.063 | inactive: -0.073 | inactive: -0.185 | inactive: 0.044 | inactive: -0.072 | inactive: 0.294 | inactive: 0.094 | inactive: 0.182 | inactive: -0.126 | inactive: 0.054 | inactive: 0.02 | inactive: 0.058 | inactive: 0.052 | inactive: -0.232 | inactive: -0.025 | inactive: -0.079 | inactive: 0.218 | inactive: 0.102 | inactive: 0.068
ACO1 (UniProt P21399) | inactive: 0.023 | inactive: 0.023 | inactive: 0.018 | inactive: 0.031 | inactive: 0.038 | inactive: -0.011 | inactive: -0.017 | inactive: -0.077 | inactive: 0.036 | inactive: 0.037 | inactive: -0.057 | inactive: -0.054 | inactive: 0.008 | inactive: -0.008 | inactive: -0.048 | inactive: -0.017 | inactive: 0.019 | inactive: -0.003 | inactive: -0.061 | inactive: -0.009
ACSF2 isoform 2 (UniProt Q96CM8) | – | – | – | – | inactive: 0.088 | – | – | – | – | – | – | – | inactive: 0.05 | – | – | – | – | – | inactive: -0.069 | inactive: -0.082
ABCA8 isoform 3 (UniProt O94911) | – | – | – | – | inactive: 0.107 | – | inactive: 0.352 | – | – | – | – | inactive: 0.032 | inactive: -0.038 | – | – | – | – | – | – | –
ABCA7 (UniProt Q8IZY2) | inactive: -0.079 | – | inactive: 0.075 | inactive: -0.026 | inactive: 0.06 | – | inactive: -0.028 | – | – | inactive: 0.163 | inactive: 0.036 | – | inactive: -0.049 | – | inactive: 0.24 | – | inactive: -0.027 | – | inactive: 0.014 | inactive: -0.078
ADAM15 (UniProt Q13444) | – | inactive: -0.103 | inactive: -0.02 | inactive: 0.034 | – | inactive: 0.066 | – | inactive: -0.028 | inactive: -0.241 | inactive: -0.034 | – | inactive: 0.065 | inactive: -0.211 | inactive: -0.04 | – | inactive: 0.073 | – | inactive: 0.056 | inactive: -0.001 | inactive: -0.016
ABCB5 (UniProt Q2M3G0) | – | – | inactive: 0.05 | – | inactive: -0.018 | – | inactive: 0.022 | – | – | – | – | – | inactive: 0.078 | – | – | – | – | – | – | –
ABCB11 (UniProt O95342) | – | inactive: -0.031 | – | – | – | – | – | – | – | inactive: -0.08 | inactive: -0.143 | inactive: -0.001 | – | – | – | – | – | – | – | –
ACSL6 isoform 1 (UniProt Q9UKU0) | – | – | inactive: 0.08 | inactive: -0.159 | – | inactive: 0.149 | – | inactive: -0.226 | inactive: -0.041 | inactive: 0.177 | – | inactive: -0.076 | inactive: -0.048 | inactive: 0.155 | – | inactive: -0.007 | – | inactive: 0.021 | inactive: -0.014 | active: -0.459
ADAMTS5 (UniProt Q9UNA0) | inactive: 0.011 | – | inactive: -0.211 | – | – | inactive: 0.045 | – | inactive: -0.018 | inactive: -0.107 | inactive: -0.004 | – | inactive: 0.222 | inactive: -0.13 | inactive: -0.021 | inactive: -0.04 | inactive: -0.048 | inactive: -0.136 | inactive: 0.028 | inactive: -0.16 | inactive: -0.039
